The list shows a part of the results. Further columns of the screen follow, without active or inactive calls. The list favours compounds with an active or inconclusive main result. Words in brackets tell the shape of the fitted curve; partial curves, single points and poor fits give uncertain potencies.

The nature of the test: IkB Signaling. To be noted: ABC-DLBCL IkBa-CBG/CBR dual luciferase ratio (green luciferase fused to IkBa over red control in OCI-Ly3 lymphoma cells), 4 h; measured here: control luc red channel unless noted. An outline of the steps: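 In this assay, an IκBα–CBG68 fusion accumulates when IKK-driven degradation is blocked; native CBR normalizes for cell number. OCI-Ly3 cells were treated 4 h with compound and doxycycline, then green and red light read after Chroma-Glo addition.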
For `CC(C)Oc1ccc(CNC(=O)c2ccc3c(c2)N(C)C(=O)C2CCCCN32)cc1` (stereo unspecified), the AC50 was 10 µM [falling, partial curve].
In the case of `Cc1nn(-c2nnc(C)c(=O)[nH]2)c(C)c1SCC(=O)Nc1ccc(F)cc1`, the AC50 was 5.01 µM [falling, partial curve].
To `Cc1ccc(N2CC(NC(=O)C3CCCC3)CC2=O)cc1C` (stereo unspecified) belongs 6.31 µM [falling, single point].
As to `O=C(COc1ccccc1Cl)Nc1nc(-c2ccc(F)cc2)ns1`, the half-maximal activity concentration (AC50) is 39.8 µM [falling, single point].
In the case of `CCN1CCN(c2cc(C)c3cc(NC(=O)/C=C/c4ccc(OCCC(C)C)cc4)ccc3n2)CC1`, the AC50 was 15.8 µM [falling, partial curve].
With `O=C(CSc1nccn1-c1ccc(F)cc1)Nc1cccc2ccccc12`, the AC50 is 15.8 µM [falling, partial curve].
With `CCc1nnc(SCc2nc(-c3cccc(C)c3)oc2C)c2cc3sc(C)cc3n12`, the AC50 is 25.1 µM [falling, single point].
To `O=C(CCN1Cc2ccccc2C1)c1ccc2c(c1)OCCO2` belongs 7.94 µM [falling, partial curve]; to `COc1ccc(CCNC(=O)Cc2ccc(NC(=O)N3CCSc4ncccc43)cc2)cc1OC`, 25.1 µM [falling, single point].
To `Nc1nc(CSc2n[nH]c(-c3ccccc3)n2)nc(Nc2ccccc2)n1` belongs 12.6 µM [falling, partial curve].
Turning to `O=C(Cn1c(=O)n(Cc2ccc(F)cc2)c(=O)c2sc3ccccc3c21)Nc1ccc(F)cc1F`, the AC50 was 10 µM [falling, partial curve, poor fit].
Regarding `CN(Cc1ccc(-n2cccn2)cc1)C(=O)c1cnn2c1NC(c1ccco1)CC2C(F)(F)F` (stereo unspecified), the AC50 is 15.8 µM [falling, partial curve].
In the case of `COc1ccc(C(=O)N2CCN(c3nc4c(OC)cccc4s3)CC2)cc1OC`, the AC50 was 39.8 µM [falling, single point].
In the case of `COc1cccc(CNC(=O)Cn2cccc2C(=O)c2ccccc2)c1`, the AC50 is 39.8 µM [falling, single point].
Regarding `COc1ccc(-c2nc(-c3cccs3)c(-c3cccs3)[nH]2)cc1O`, the AC50 is 15.8 µM [falling, partial curve].
On to `O=C(COc1ccccc1)Nc1nc2ccccc2[nH]1`, for which the AC50 is 3.98 µM [falling, partial curve].
For `CC(C)COc1ccc(C(=O)N(Cc2cccc(F)c2)C2CCS(=O)(=O)C2)cc1` (stereo unspecified), the AC50 was 20 µM [falling, single point].
On to `CCOc1ccc(S(=O)(=O)NCc2cccn2Cc2cccc(C)c2)cc1`, for which the AC50 was 15.8 µM [falling, partial curve, poor fit].
For `CCc1cccc(C)c1NC(=O)C(NS(=O)(=O)c1ccc2c(c1)CCC(=O)N2)c1ccccc1` (stereo unspecified), the AC50 is 6.31 µM [falling, partial curve].
Regarding `Cc1ccc(C)c(N2CCN(C(c3ccccc3)c3nnc(-c4ccccc4)o3)CC2)c1` (stereo unspecified), the AC50 was 10 µM [falling, partial curve].
On to `Cc1ccc(NS(=O)(=O)c2c(C)nc3sc(C)c(C)n3c2=O)cc1F`, for which the AC50 is 15.8 µM [falling, single point].
For `COC(=O)c1cc2sc(Cl)cc2n1CC(=O)N1CCCc2ccccc21`, the AC50 is 10 µM [falling, partial curve].
Take `CC(C)OC(=O)c1ccc(NC(=O)CSc2nc(-c3cccs3)cc(C(F)(F)F)n2)cc1`: the AC50 is 5.01 µM [falling, full curve, poor fit].
Regarding `COc1ccccc1N1CCN(CCN2C(=O)c3ccccc3C(C)(C)C2=O)CC1`, the AC50 was 31.6 µM [falling, partial curve].
In the case of `COc1ccc(NC(=O)CSCc2cc(=O)c3cc(Cl)ccc3[nH]2)cc1`, the AC50 is 6.31 µM [falling, partial curve, poor fit].
In the case of `Cc1ccc(N2CC(NC(=O)C3CCCCC3)CC2=O)cc1` (stereo unspecified) it was 5.01 µM [falling, partial curve]; in that of `CCc1ccc(C(=O)c2cn(CC(=O)Nc3ccc(F)cc3)c3ccc(F)cc3c2=O)cc1`, 25.1 µM [falling, single point]; in that of `Cc1cccc(C(=O)Nc2cc(-c3ccccc3F)nn2-c2ccccc2)c1`, 6.31 µM [falling, single point].
For `Cc1ccc(CC(=O)NCc2nc(-c3ccccc3)no2)cc1`, the AC50 was 15.8 µM [falling, partial curve].
To `O=C(NCCc1ccccc1Cl)c1cc2ccccn2n1` belongs 20 µM [falling, single point]; to `Cc1cc(SCC(=O)Nc2ccc(F)cc2F)nc(=O)[nH]1`, 3.98 µM [rising, single point] [measured here: IkB-luc green channel]; to `Cc1ccc(S(=O)(=O)NCCc2nnc3ccc(SCC(=O)Nc4c(C)cc(C)cc4C)nn23)cc1`, 10 µM [falling, partial curve, poor fit].
In the case of `CCOc1ccc(CCNC(=O)c2c3c(nc4ccccc24)C(=O)N(C2CCCCC2)C3)cc1`, the AC50 was 31.6 µM [falling, single point].
As for `Cc1ccc(C)c(NC(=O)c2oc(=O)c3ccccc3c2-c2ccccc2)c1`, the AC50 is 15.8 µM [falling, partial curve].
Take `CCCc1nn2c(=O)cc(COC(=O)c3ccc4c(c3)OCO4)nc2s1`: the concentration at half-maximal activity (AC50) was 39.8 µM [falling, partial curve, poor fit].
For the molecule `Cc1ccc(-c2c(C(=O)Nc3ccccc3F)oc(=O)c3ccccc23)cc1`, the AC50 was 10 µM [falling, partial curve].
As to `Cc1nc2cc(-c3cccc(F)c3)nn2c(N2CCOCC2)c1C`, the AC50 is 3.16 µM [rising, partial curve, poor fit].
Take `Cc1ccc(C)c(N2CCN(C(=O)Cn3cnc4nc5c(cc4c3=O)CCCC5)CC2)c1`: the AC50 was 25.1 µM [falling, partial curve].
Take `CCOC(=O)c1cccc(NC(=O)C2=C(C)C(=O)OC23CCCCC3)c1`: the AC50 was 39.8 µM [falling, single point].
On to `Cc1ccc(C)c(Cn2c(SCC(=O)NCc3ccccc3)nc3ccccc32)c1`, for which the AC50 is 39.8 µM [falling, single point].
Turning to `COc1ccc(CNc2ncnc3c2c(-c2ccccc2)cn3-c2ccc(C)c(Cl)c2)cc1`, the AC50 was 0.0398 µM [falling, full curve, poor fit].
As to `COc1cccc(C(=O)Nc2nc(-c3nnn(-c4cccc(Cl)c4C)c3C)ns2)c1`, the AC50 is 12.6 µM [falling, partial curve].
For the molecule `COc1ccc(NC(=O)Cn2c(=O)n(-c3ccc(OC)cc3)c(=O)c3sc4ccccc4c32)cc1`, the AC50 is 20 µM [rising, partial curve].
To `O=c1[nH]c(=O)n(C2CCCCCC2)c(O)c1C=NCc1ccc(F)cc1` belongs 31.6 µM [falling, single point].
In the case of `COc1ccc2c(CNCc3ccco3)c(C(=O)O)n(Cc3cccc(F)c3)c2c1` it was 15.8 µM [falling, single point].
Regarding `CCCN(CCC)C(=O)C1CCN(c2cc(C)nc3c(-c4ccc(Cl)cc4)c(C)nn23)CC1`, the AC50 is 15.8 µM [falling, partial curve].
For the molecule `O=C(NCCO)c1ccc(-c2nnc(Nc3ccc(OC(F)(F)Cl)cc3)c3ccccc23)cc1`, the AC50 was 25.1 µM [falling, partial curve].
In the case of `Cc1ccnc(NC(=O)CCC2CCCCC2)c1` it was 15.8 µM [falling, single point]; in that of `COc1cccc(CNCc2c(C(=O)O)n(Cc3ccc(C)cc3)c3cc(C)ccc23)c1OC`, 31.6 µM [falling, partial curve].
On to `CCC1CCCCN1CCCNC(=O)c1ccc2c(c1)N(Cc1cccc(Cl)c1)C(=O)c1ccccc1S2(=O)=O` (stereo unspecified), for which the half-maximal activity concentration (AC50) was 15.8 µM [falling, partial curve].
As for `C[C@@]12CCC(=O)C=C1CC[C@H]1[C@H]3CC[C@](O)(C(=O)CO)[C@]3(C)CC(=O)[C@@H]12`, the AC50 is 5.01 µM [rising, full curve, poor fit] [measured here: IkB-luc green channel].
With `O=c1oc2c(CN3CCOCC3)c(O)ccc2cc1-c1ccccc1`, the AC50 was 3.16 µM [rising, full curve].
Take `O=C(NCCc1nc2ccccc2n1Cc1ccc(Cl)cc1)c1ccccc1`: the AC50 is 25.1 µM [falling, single point].
In the case of `Cc1nnc(NC(=O)CSc2nc3c([nH]c4ccccc43)c(=O)n2-c2cccc(Cl)c2)s1`, the AC50 was 39.8 µM [falling, single point].
For the molecule `COc1ccc(-c2nc3ccccc3o2)cc1NC(=O)c1cc(Br)ccc1OC`, the AC50 is 25.1 µM [falling, single point].
In the case of `COc1ccc(CCNC(=O)c2cnc3sc(N4CCCCCC4)nn3c2=O)cc1` it was 12.6 µM [falling, partial curve]; in that of `c1ccc(-c2noc(CSc3nnc(Cc4cccs4)n3-c3ccccc3)n2)cc1`, 20 µM [falling, single point]; in that of `O=C(COc1ccccc1)Nc1nc(-c2cccs2)cs1`, 39.8 µM [falling, single point].
For `CC(=O)Nc1nc2ccccc2n1CCOc1ccccc1Cl`, the AC50 is 31.6 µM [rising, partial curve] [measured here: IkB-luc green channel].
In the case of `COc1ccc(N2CCN(C(=O)C3CCCN(S(=O)(=O)c4ccc5c(c4)oc(=O)n5C)C3)CC2)cc1` (stereo unspecified) it was 39.8 µM [falling, single point]; in that of `COc1ccccc1CCNC(=O)C1(c2cccs2)CCOCC1`, 31.6 µM [rising, single point].

Source of the values: PubChem BioAssay AID445 (National Center for Advancing Translational Sciences (NCATS), 2006).
